PubChem BioAssay AID504774, Drosophila RNAi Screening Center, 2011

- Aim: 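Fly genes whose loss alters survival after alkylation damage to DNA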 (primary screen)
- System: Drosophila Kc167 cells
- Knock-down reagent: long dsRNA against Drosophila genes, about 0.25 µg dsRNA per well
- Time to read-out: about 6 days: 3 days knock-down, then 3 days with or without MMS
- Conditions: methyl methanesulphonate 0.004% (w/v) for 3 days after knock-down
- Measurement: 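ATP-dependent luminescence as a measure of live cells in MMS-exposed wells, quantile normalised within each plate, with replicate values also given as a mean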
- Direction: mean viability with MMS and viability with MMS: higher = more surviving cells after MMS
The screen tested about 23,000 reagents; this is a random part of those that have a named target and a result. 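Values are quantile-normalised luminescence on an arbitrary scale; higher means more cells surviving MMS.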 Not all columns of the deposit are shown.

For hfp (half pint) [SID104188523], the values are mean viability with MMS 3.20e6; viability with MMS, replicate 1 = 3.62e6.
hfp (half pint) [SID104188524] scored mean viability with MMS 3.55e6; viability with MMS, replicate 1 = 4.02e6.
With knock-down of hfp (half pint) [SID104201884], the screen gave mean viability with MMS 3.85e6; viability with MMS, replicate 1 = 4.21e6.
Silencing of RpS5a (Ribosomal protein S5a) [SID104200074] resulted in: mean viability with MMS 3.30e6; viability with MMS, replicate 1 = 3.74e6.
Depletion of Fs (Follistatin) [SID104186050] gave: mean viability with MMS 3.61e6; viability with MMS, replicate 1 = 4.16e6.
Silencing of Fs (Follistatin) [SID104186051] gave: mean viability with MMS 3.63e6; viability with MMS, replicate 1 = 4.11e6.
Against Ir20a (Ionotropic receptor 20a) [SID104200298] the deposit lists mean viability with MMS 3.51e6; viability with MMS, replicate 1 = 4.02e6.
Silencing of CG15916 [SID104199532] came out at: mean viability with MMS 3.52e6; viability with MMS, replicate 1 = 4.02e6.
Depletion of CG14277 [SID104182172] came out at: mean viability with MMS 3.85e6; viability with MMS, replicate 1 = 4.49e6.
Against tio (tiptop) [SID104183531], the values are mean viability with MMS 3.50e6; viability with MMS, replicate 1 = 3.97e6.
Knock-down of Vajk4 [SID104186381] resulted in: mean viability with MMS 3.64e6; viability with MMS, replicate 1 = 4.19e6.
Depletion of Vajk4 [SID104186795] resulted in: mean viability with MMS 3.54e6; viability with MMS, replicate 1 = 4.07e6.
Depletion of Dus2 (Dihydrouridine synthase 2) [SID104199383] resulted in: mean viability with MMS 3.64e6; viability with MMS, replicate 1 = 4.08e6.
Depletion of CG6553 [SID104186794] resulted in: mean viability with MMS 3.29e6; viability with MMS, replicate 1 = 3.91e6.
Against Prestin [SID104190299], the values are mean viability with MMS 3.42e6; viability with MMS, replicate 1 = 3.81e6.

2 of these entries in another layout.
{"gene": "hfp (half pint)", "PubChem SID": "SID104188524", "mean viability with MMS": 3.55e6, "viability with MMS, replicate 1": 4.02e6}
{"gene": "hfp (half pint)", "PubChem SID": "SID104201884", "mean viability with MMS": 3.85e6, "viability with MMS, replicate 1": 4.21e6}

The results go on.
With knock-down of CG32066 [SID104190444], the record shows mean viability with MMS 3.78e6; viability with MMS, replicate 1 = 4.35e6.
Knock-down of CG32066 [SID104190445] gave: mean viability with MMS 3.73e6; viability with MMS, replicate 1 = 4.23e6.
Knock-down of Traf-like (TNF-receptor-associated factor-like) [SID104199686] gave: mean viability with MMS 3.44e6; viability with MMS, replicate 1 = 4.00e6.
Cap-G (Chromosome associated protein G) [SID104186444] gave mean viability with MMS 3.51e6; viability with MMS, replicate 1 = 3.86e6.
Silencing of Cap-G (Chromosome associated protein G) [SID104186445] resulted in: mean viability with MMS 3.50e6; viability with MMS, replicate 1 = 3.79e6.
After knock-down of Cap-G (Chromosome associated protein G) [SID104201461], the record shows mean viability with MMS 2.97e6; viability with MMS, replicate 1 = 3.68e6.
Dso1 (Daisho1) [SID104201469] gave mean viability with MMS 3.36e6; viability with MMS, replicate 1 = 3.88e6.
For Gfrl (Glial cell line-derived neurotrophic family receptor-like) [SID104194989], the values are mean viability with MMS 3.62e6; viability with MMS, replicate 1 = 4.05e6.
After knock-down of Gfrl (Glial cell line-derived neurotrophic family receptor-like) [SID104194991] the results were mean viability with MMS 3.56e6; viability with MMS, replicate 1 = 3.90e6.
With knock-down of Gfrl (Glial cell line-derived neurotrophic family receptor-like) [SID104195357], the record shows mean viability with MMS 3.62e6; viability with MMS, replicate 1 = 4.08e6.
Gfrl (Glial cell line-derived neurotrophic family receptor-like) [SID104195511] gave mean viability with MMS 3.68e6; viability with MMS, replicate 1 = 4.12e6.
